Laboratory results: PMC10988696, “FLIM‐FRET‐based analysis of S100A11/annexin interactions in living cells” (FEBS Open Bio, 2024)
These are yes or no findings as the source states them, for the method shown. In cells and extracts the contact can be indirect. Some entries that bind do so weakly or less than the wild type.

Protein sequences, listed by entry. Tags and fused reporters are not part of them.
UniProt P07355: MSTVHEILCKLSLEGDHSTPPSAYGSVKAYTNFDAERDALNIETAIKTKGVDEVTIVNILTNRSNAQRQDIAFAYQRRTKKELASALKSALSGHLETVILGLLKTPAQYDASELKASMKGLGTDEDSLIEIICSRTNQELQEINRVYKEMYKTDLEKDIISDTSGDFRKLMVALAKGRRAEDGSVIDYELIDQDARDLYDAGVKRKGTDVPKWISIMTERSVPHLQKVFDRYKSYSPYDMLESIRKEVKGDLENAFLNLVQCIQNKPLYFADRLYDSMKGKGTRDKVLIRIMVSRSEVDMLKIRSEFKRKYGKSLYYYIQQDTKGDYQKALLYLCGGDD

Molecular target: T1, EGFP-ANXA2 (human, UniProt P07355 1-339)
T1 construct: human annexin A2 (ANXA2) with the fluorescent protein tag in the altered orientation (EGFP-ANXA2); The cloning of this orientation is not described in the methods; source: U2OS or HEK293T cells, transfected (calcium phosphate), in living cells; not shown: EGFP, N-terminal, kept
Experiment: FRET or BRET; FLIM-FRET (EGFP donor lifetime, mCherry acceptor) in living HEK293T cells co-transfected with both constructs

binding: binds
B1: S100A11-mCherry (natural protein, human, UniProt P31949 1-105, looked up)
chain: MAKISSPTETERCIESLIAVFQKYAGKDGYNYTLSKTEFLSFMNTELAAFTKNQKDPGVLDRMMKKLDTNSDGQLDFSEFLNLIGGLAMACHDSFLKAVPSQKRT
notes: human S100A11 wild type; cloned in pmCherry-N1 (EcoRI, BamHI); End of the tag read from the label S100A11-mCherry and the vector pmCherry-N1; also called S100A11wt; wild-type S100A11-mCherry; source: U2OS or HEK293T cells, transfected (calcium phosphate), in living cells; not shown: mCherry, C-terminal, kept
